No constants are given. Whether binding was seen depends on the method and setting. Binding seen in cells or lysates may run through a third protein. Some binding calls cover weakened binding; strength is not graded here. For part of these data: Sequences can lack the tags named with a protein.
Experiments:
Assay in all cases: co-IP; plasmids co-transfected into HEK293T cells; lysates, Dynabeads Protein G with anti-FLAG, anti-HA or anti-MYC antibody, overnight 4 °C, washes PBS 0.1% Tween
[1] = molecular target: T1, ADNP-Cter (686–1108) (mouse) (UniProt Q9Z103)
T1 sequence: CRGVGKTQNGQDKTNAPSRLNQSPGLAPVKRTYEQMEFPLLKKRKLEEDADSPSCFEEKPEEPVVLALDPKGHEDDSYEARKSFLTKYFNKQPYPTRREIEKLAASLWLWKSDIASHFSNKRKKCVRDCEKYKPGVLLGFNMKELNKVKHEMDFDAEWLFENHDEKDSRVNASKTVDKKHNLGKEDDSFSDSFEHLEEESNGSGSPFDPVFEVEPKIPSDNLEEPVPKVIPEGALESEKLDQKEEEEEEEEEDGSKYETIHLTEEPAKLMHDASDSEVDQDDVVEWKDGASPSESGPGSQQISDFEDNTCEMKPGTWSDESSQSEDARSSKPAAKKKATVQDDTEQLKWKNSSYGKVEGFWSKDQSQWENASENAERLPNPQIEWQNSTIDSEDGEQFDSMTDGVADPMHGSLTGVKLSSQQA

Protein sequences, listed by entry. Tags and fused reporters are not part of them.
UniProt Q02248: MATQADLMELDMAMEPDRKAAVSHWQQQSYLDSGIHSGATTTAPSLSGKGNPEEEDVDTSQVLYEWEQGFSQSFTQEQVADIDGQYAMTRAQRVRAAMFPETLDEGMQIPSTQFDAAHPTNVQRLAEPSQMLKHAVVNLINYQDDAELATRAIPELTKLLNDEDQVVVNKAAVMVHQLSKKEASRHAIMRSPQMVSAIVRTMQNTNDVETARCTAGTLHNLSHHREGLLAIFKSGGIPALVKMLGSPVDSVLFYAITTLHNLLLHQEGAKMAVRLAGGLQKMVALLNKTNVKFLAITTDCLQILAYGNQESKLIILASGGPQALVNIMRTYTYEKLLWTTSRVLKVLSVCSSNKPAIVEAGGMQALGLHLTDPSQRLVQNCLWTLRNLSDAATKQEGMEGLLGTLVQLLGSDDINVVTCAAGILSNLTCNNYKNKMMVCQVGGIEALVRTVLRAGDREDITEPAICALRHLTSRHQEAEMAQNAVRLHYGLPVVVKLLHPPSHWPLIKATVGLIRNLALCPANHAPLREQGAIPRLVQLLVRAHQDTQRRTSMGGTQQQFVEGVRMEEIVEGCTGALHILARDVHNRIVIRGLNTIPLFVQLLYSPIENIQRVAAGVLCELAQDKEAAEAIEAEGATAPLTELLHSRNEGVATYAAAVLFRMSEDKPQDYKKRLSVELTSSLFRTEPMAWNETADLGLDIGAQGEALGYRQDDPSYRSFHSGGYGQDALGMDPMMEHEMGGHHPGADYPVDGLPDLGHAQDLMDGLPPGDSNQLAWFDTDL

[2] = molecular target: T2, ADNP-Nter without NAP (mouse) (UniProt Q9Z103)
T2 sequence: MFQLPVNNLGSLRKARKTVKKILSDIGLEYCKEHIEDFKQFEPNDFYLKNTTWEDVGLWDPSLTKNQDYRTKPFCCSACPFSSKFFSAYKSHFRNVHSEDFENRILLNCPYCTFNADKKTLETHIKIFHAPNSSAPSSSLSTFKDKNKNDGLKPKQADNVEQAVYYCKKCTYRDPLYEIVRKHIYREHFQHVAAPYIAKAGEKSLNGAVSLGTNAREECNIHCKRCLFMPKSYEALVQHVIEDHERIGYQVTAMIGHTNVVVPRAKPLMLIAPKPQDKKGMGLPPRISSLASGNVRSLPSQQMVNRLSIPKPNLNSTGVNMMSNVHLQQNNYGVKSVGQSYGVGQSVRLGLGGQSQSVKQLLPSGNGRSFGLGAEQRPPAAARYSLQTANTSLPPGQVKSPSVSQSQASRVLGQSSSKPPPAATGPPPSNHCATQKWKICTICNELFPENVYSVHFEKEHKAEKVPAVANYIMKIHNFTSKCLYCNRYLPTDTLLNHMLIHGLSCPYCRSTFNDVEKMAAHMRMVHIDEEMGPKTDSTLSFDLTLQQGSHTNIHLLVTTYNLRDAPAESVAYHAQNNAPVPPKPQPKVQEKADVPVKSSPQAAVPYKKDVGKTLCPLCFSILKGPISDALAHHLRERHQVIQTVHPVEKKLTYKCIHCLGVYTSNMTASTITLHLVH

[3] = molecular target: T3, FLAG-ADNP-Nter (1–685) (mouse) (UniProt Q9Z103)
T3 sequence: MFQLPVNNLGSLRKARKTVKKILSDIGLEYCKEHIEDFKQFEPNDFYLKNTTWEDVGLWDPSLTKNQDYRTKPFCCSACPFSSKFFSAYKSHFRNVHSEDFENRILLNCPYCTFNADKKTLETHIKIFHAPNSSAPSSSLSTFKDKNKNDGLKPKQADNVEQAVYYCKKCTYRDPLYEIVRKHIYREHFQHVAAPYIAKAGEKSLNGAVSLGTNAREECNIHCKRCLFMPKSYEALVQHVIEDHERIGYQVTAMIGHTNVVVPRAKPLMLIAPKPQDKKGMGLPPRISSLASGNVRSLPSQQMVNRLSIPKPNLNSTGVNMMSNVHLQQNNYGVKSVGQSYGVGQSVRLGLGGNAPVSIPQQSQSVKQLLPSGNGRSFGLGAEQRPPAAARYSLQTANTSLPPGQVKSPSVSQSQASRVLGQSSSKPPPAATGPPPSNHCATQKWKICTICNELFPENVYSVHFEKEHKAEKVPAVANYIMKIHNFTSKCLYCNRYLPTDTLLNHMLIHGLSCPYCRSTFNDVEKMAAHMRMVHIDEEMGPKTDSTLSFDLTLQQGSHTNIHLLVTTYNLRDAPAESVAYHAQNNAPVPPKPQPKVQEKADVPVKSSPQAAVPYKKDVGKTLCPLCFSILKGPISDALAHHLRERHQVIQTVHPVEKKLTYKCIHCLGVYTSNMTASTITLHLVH

“Myc-β-catenin (from UniProt Q02248 1-781)” was tested, and the binding [1] was “no binding”, the binding [2] was “binds” and the binding [3] was “binds”.
